Measurements: article PMC10632425
These are yes or no findings as the source states them, for the method shown. Some binding calls cover weakened binding; strength is not graded here.

T1: BmrC subunit of BmrCD*-QQ (D500Q) (Bacillus subtilis) (UniProt O07550)
T1 sequence: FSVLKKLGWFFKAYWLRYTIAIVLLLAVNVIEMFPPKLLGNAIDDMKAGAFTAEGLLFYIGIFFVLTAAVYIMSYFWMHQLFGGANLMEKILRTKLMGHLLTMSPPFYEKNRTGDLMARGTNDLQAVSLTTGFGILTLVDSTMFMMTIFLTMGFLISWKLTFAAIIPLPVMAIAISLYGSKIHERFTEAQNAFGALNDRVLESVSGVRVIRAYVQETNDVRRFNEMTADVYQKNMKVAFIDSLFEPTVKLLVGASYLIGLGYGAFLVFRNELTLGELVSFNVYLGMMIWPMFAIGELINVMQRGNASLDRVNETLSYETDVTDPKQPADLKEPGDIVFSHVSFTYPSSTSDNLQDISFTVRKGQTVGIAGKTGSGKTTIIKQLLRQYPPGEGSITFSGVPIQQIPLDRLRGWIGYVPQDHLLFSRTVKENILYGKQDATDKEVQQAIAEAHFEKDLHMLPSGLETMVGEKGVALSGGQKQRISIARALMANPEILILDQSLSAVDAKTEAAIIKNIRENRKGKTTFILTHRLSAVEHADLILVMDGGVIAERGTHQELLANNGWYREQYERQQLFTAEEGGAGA

T2: BmrC subunit of wild type BmrCD (Bacillus subtilis) (UniProt O07550)
T2 sequence: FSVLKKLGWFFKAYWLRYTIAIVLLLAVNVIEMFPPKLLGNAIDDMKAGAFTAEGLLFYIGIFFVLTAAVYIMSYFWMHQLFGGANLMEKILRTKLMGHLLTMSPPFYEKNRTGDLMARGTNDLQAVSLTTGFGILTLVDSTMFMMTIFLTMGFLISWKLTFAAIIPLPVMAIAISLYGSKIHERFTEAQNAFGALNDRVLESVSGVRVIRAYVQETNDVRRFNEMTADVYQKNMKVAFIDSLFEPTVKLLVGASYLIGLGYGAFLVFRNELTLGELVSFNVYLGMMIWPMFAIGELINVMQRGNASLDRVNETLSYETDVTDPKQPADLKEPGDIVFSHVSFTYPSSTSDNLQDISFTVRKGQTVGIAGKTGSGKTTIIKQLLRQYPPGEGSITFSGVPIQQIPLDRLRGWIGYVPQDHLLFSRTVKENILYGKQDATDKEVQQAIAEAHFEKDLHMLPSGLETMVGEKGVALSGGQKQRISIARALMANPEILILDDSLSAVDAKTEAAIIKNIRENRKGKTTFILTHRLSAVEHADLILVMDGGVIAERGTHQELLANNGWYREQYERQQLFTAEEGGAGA


Key:
[1] = target: T1, BmrC subunit of BmrCD*-QQ (D500Q) (Bacillus subtilis); assay: cryo-EM structure; BmrCD heterodimer (~3 mg/ml) in lipid nanodiscs (MSP1D1 or MSP1D1E3; PC/PA or PC/E. coli polar lipids); BmrCD*-QQ with 10 mM ATP, 5 mM MgCl2, with or without 1.2 mM Hoechst-33342; wild type with 10 mM ATP, 4 mM MgSO4, 4 mM vanadate at 37 °C; both purified
[2] = target: T2, BmrC subunit of wild type BmrCD (Bacillus subtilis); assay: as above

binding [1]	binding [2]	Binder
binds	–	BmrD subunit of BmrCD*-QQ (cysteine-less, E592Q) (protein, UniProt O07549 1-673) MKIGKTLWRYALLYRKLLITAVLLLTVAVGAELTGPFIGKKMIDDHILGIEKTWYEAAEKDKNAVQFHGVSYVREDRLQEPVSKAKEAHIYQVGMAFYFVDQAVSFDGNRTVSDGKLTITNGDKSRAYAAEKLTKQELFQFYQPEIKGMVLLIALYGGLLVFSVFFQYGQHYLLQMSANRIIQKMRQDVFSHIQKMPIRYFDNLPAGKVVARITNDTEAIRDLYVTVLSTFVTSGIYMFGIFTALFLLDVKLAFVALAIVPIIWLWSVIYRRYASYYNQKIRSINSDINAKMNESIQGMTIIQAFRHQKETMREFEELNESHFYFQNRMLNLNSLMSHNLVNVIRNLAFVALIWHFGGASLNAAGIVSIGVLYAFVDYLNRLFQPITGIVNQFSKLELARVSAGRVFELLEEKNTEEAGEPAKERALGRVEFRDVSFAYQEGEEVLKHISFTAQKGETVALVGHTGSGKSSILNLLFRFYDAQKGDVLIDGKSIYNMSRQELRSHMGIVLQDPYLFSGTIGSNVSLDDERMTEEEIKNALRQVGAEPLLKKLPKGINEPVIEKGSTLSSGERQLISFARALAFDPAILILDQATAHIDTETEAVIQKALDVVKQGRTTFVIAHRLSTIRNADQILVLDKGEIVERGNHEELMALEGQYYQMYELQKGQKHSIA
–	binds	BmrD subunit of wild type BmrCD (protein, UniProt O07549 1-673) MKIGKTLWRYALLYRKLLITAVLLLTVAVGAELTGPFIGKKMIDDHILGIEKTWYEAAEKDKNAVQFHGVSYVREDRLQEPVSKAKEAHIYQVGMAFYFVDQAVSFDGNRTVSDGKLTITNGDKSRAYAAEKLTKQELFQFYQPEIKGMVLLICLYGGLLVFSVFFQYGQHYLLQMSANRIIQKMRQDVFSHIQKMPIRYFDNLPAGKVVARITNDTEAIRDLYVTVLSTFVTSGIYMFGIFTALFLLDVKLAFVCLAIVPIIWLWSVIYRRYASYYNQKIRSINSDINAKMNESIQGMTIIQAFRHQKETMREFEELNESHFYFQNRMLNLNSLMSHNLVNVIRNLAFVCLIWHFGGASLNAAGIVSIGVLYAFVDYLNRLFQPITGIVNQFSKLELARVSAGRVFELLEEKNTEEAGEPAKERALGRVEFRDVSFAYQEGEEVLKHISFTAQKGETVALVGHTGSGKSSILNLLFRFYDAQKGDVLIDGKSIYNMSRQELRSHMGIVLQDPYLFSGTIGSNVSLDDERMTEEEIKNALRQVGAEPLLKKLPKGINEPVIEKGSTLSSGERQLISFARALAFDPAILILDEATAHIDTETEAVIQKALDVVKQGRTTFVIAHRLSTIRNADQILVLDKGEIVERGNHEELMALEGQYYQMYELQKGQKHSIA
